Earlier results, collected in US6086918A, “Oral peptide pharmaceutical products” (Unigene Laboratories, Inc., priority 1998, dated 2000).
Part of at least one peptide drawing is inferred or uncertain, most often the ends.

Details: in vivo; cited from earlier work

Question: With CC(C)C[C@H](NC(=O)[C@H](CCCCN)NC(=O)CNC(=O)[C@H](CC(C)C)NC(=O)[C@@H](NC(=O)[C@@H]1CSSC[C@H](N)C(=O)N[C@@H](CO)C(=O)N[C@@H](CC(N)=O)C(=O)N[C@@H](CC(C)C)C(=O)N[C@@H](CO)C(=O)N[C@@H]([C@@H](C)O)C(=O)N1)C(C)C)C(=O)N[C@@H](CO)C(=O)N[C@@H](CCC(N)=O)C(=O)N[C@@H](CCC(=O)O)C(=O)N[C@@H](CC(C)C)C(=O)N[C@@H](Cc1c[nH]cn1)C(=O)N[C@@H](CCCCN)C(=O)N[C@@H](CC(C)C)C(=O)N[C@@H](CCC(N)=O)C(=O)N[C@H](C(=O)N[C@@H](Cc1ccc(O)cc1)C(=O)N1CCC[C@H]1C(=O)N[C@@H](CCCNC(=N)N)C(=O)N[C@H](C(=O)N[C@@H](CC(N)=O)C(=O)N[C@H](C(=O)NCC(=O)N[C@@H](CO)C(=O)NCC(=O)N[C@H](C(=O)N1CCC[C@H]1C(N)=O)[C@@H](C)O)[C@@H](C)O)[C@@H](C)O)[C@@H](C)O [Salmon calcitonin] as the molecule, how does the “duration of beneficial effect on osteoclasts” value read?
Answer: The value was “more than 24 hours”.
